According to paper PMC7996396, “Affinity and Structural Analysis of the U1A RNA Recognition Motif with Engineered Methionines to Improve Experimental Phasing”:
No constants are given. Whether binding was seen depends on the method and setting.

Protein sequences, listed by entry. Tags and fused reporters are not part of them. Lines headed by an entry give the natural chain unless they say otherwise; changes in a name come on top. Chains listed by the source or under a name are the forms on record and can include a tag or linker.
U1A RNA-recognition motif 1 (RRM1) variant Y31H/Q36R (double-mutant protein, dmU1A) (P09012, form named): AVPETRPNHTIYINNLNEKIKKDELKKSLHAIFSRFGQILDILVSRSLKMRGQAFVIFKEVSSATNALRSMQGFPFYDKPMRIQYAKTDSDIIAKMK
selenomethionine-labeled dmU1A(F37M/F77M) (P09012, form named): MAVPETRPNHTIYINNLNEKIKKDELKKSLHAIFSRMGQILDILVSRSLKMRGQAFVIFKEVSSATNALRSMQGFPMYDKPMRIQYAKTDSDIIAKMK

What was measured:
[1] = biological target: U1A RNA-recognition motif 1 (RRM1) variant Y31H/Q36R (double-mutant protein, dmU1A) (human) (UniProt P09012); experiment: ITC; protein injected into buffer alone (heats of dilution) as a control for oligomerization; PEAQ-ITC, 20 °C, 0.05 M Na-HEPES pH 7.5, 0.05 M NaCl, 0.05 M KCl, 0.002 M MgCl2, 0.005 M β-ME; both purified
[2] = biological target: U1A RNA-recognition motif 1 (RRM1) variant Y31H/Q36R (double-mutant protein, dmU1A) (human) (UniProt P09012); experiment: SEC; HiPrep (16/60) Sephacryl S-300 HR column, concentrated protein sample (~150 μm), molecular weight standards; both purified
[3] = biological target: selenomethionine-labeled dmU1A(F37M/F77M) (human) (UniProt P09012); experiment: ITC; protein injected into buffer alone (heats of dilution) as a control for oligomerization; PEAQ-ITC, 20 °C, 0.05 M Na-HEPES pH 7.5, 0.05 M NaCl, 0.05 M KCl, 0.002 M MgCl2, 0.005 M β-ME; both purified
[4] = biological target: selenomethionine-labeled dmU1A(F37M/F77M) (human) (UniProt P09012); experiment: SEC; HiPrep (16/60) Sephacryl S-300 HR column, concentrated protein sample (~150 μm), molecular weight standards; both purified

Row | Substance | binding [1] | binding [2] | binding [3] | binding [4]
1 | U1A RNA-recognition motif 1 (RRM1) variant Y31H/Q36R (double-mutant protein, dmU1A) (from UniProt P09012 2-98) (domain or fragment) | no binding (tested: ~10-fold higher than the RNA (7–10 μM)) | no binding (tested: ~150 μm) |  | 
2 | selenomethionine-labeled dmU1A(F37M/F77M) (from UniProt P09012 1-98) (domain or fragment) |  |  | no binding (tested: ~10-fold higher than the RNA (7–10 μM)) | no binding (tested: ~150 μm)
